Some of the results follow.

Protein sequences, listed by entry. Tags and fused reporters are not part of them. Lines headed by an entry give the natural chain unless they say otherwise; changes in a name come on top.
UniProt Q9P2K8: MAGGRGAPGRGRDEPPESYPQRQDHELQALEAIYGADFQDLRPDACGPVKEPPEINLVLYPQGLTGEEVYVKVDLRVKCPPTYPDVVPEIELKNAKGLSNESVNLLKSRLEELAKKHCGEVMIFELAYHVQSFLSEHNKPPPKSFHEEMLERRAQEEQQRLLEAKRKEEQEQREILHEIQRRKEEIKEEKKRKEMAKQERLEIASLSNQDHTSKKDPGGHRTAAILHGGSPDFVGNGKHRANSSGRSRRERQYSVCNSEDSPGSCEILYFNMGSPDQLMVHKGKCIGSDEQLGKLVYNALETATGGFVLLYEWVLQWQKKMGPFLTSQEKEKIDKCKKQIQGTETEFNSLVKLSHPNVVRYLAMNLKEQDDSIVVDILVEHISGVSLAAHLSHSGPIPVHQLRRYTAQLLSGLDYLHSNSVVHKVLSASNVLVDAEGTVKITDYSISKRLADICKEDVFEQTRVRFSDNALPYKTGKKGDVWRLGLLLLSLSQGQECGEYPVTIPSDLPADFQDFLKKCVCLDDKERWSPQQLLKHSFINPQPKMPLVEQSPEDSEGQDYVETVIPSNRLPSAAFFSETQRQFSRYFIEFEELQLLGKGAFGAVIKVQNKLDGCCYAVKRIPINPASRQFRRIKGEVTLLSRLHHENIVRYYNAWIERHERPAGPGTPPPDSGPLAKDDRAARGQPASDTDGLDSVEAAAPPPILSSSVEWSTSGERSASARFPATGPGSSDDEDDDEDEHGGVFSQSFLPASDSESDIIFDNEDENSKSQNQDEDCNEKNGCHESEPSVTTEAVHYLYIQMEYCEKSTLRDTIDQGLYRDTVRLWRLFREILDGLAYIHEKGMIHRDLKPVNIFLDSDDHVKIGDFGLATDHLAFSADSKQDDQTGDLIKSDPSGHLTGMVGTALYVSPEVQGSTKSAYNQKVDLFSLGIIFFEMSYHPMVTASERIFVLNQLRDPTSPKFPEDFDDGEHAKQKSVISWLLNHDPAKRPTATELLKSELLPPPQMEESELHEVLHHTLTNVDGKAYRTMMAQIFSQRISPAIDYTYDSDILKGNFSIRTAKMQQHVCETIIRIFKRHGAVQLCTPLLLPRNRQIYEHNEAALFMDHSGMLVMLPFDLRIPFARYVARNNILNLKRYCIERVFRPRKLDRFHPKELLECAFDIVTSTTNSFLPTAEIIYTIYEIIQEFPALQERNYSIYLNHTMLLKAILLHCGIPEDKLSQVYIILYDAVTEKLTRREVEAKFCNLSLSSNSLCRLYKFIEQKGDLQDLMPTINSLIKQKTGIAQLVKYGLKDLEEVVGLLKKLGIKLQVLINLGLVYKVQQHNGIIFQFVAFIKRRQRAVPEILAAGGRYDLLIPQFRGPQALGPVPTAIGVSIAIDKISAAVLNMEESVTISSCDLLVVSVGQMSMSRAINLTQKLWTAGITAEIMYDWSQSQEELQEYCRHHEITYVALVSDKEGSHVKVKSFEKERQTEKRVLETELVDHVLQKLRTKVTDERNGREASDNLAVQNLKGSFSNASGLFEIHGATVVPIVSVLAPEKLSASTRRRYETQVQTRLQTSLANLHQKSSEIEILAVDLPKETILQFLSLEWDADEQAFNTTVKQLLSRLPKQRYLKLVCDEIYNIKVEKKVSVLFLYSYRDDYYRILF
UniProt Q9P0I2: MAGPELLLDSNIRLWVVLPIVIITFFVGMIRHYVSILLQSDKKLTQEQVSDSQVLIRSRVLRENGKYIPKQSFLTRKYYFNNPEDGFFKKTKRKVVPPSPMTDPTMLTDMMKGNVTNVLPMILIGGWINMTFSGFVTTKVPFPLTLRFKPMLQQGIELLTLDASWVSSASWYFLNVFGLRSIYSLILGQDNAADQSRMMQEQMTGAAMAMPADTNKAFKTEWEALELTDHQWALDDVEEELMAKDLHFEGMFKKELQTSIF
UniProt P54852: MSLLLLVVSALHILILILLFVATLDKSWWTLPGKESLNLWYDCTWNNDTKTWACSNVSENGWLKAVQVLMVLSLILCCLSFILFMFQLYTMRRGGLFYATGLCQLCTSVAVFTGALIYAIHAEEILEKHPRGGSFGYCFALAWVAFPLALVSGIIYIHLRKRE
UniProt Q5J8M3, whole entry, looked up: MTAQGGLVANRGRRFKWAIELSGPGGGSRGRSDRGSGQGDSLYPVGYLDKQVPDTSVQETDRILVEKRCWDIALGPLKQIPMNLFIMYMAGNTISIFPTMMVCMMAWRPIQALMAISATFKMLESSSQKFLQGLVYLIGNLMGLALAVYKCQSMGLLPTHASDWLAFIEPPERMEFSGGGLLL
UniProt Q9Y2J2, whole entry, looked up: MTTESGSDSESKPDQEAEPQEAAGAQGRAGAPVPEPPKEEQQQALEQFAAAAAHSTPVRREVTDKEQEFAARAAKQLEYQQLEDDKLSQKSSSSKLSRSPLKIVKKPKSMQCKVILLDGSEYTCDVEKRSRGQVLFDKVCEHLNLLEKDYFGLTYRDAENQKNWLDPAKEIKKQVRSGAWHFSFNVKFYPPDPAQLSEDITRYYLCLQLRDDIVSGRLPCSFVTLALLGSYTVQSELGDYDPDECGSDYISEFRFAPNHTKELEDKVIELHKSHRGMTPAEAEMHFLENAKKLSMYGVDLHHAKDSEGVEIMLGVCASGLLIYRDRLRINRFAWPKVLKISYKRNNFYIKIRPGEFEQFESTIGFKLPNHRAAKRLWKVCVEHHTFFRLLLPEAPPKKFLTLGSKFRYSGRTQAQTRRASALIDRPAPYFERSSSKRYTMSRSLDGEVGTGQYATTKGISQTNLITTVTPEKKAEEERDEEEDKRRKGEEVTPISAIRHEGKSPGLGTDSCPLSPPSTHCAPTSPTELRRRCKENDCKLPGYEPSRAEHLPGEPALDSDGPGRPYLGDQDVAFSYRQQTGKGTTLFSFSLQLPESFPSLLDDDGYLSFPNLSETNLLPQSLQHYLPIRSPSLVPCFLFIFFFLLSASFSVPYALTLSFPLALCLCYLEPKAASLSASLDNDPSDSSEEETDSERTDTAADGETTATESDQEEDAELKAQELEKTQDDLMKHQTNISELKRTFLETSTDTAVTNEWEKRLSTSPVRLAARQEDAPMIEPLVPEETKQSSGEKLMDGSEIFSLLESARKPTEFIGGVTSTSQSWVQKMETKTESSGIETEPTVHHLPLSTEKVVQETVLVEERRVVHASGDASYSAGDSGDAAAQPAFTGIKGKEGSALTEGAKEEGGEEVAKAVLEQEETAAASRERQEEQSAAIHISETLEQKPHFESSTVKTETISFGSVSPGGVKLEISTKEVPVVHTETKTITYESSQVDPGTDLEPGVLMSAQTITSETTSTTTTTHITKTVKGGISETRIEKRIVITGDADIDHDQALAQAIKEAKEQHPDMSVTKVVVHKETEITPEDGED
UniProt Q13542: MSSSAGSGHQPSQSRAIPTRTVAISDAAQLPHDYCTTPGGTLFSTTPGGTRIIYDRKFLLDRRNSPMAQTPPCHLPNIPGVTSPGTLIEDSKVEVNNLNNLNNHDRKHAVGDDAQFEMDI
UniProt Q2NKX8: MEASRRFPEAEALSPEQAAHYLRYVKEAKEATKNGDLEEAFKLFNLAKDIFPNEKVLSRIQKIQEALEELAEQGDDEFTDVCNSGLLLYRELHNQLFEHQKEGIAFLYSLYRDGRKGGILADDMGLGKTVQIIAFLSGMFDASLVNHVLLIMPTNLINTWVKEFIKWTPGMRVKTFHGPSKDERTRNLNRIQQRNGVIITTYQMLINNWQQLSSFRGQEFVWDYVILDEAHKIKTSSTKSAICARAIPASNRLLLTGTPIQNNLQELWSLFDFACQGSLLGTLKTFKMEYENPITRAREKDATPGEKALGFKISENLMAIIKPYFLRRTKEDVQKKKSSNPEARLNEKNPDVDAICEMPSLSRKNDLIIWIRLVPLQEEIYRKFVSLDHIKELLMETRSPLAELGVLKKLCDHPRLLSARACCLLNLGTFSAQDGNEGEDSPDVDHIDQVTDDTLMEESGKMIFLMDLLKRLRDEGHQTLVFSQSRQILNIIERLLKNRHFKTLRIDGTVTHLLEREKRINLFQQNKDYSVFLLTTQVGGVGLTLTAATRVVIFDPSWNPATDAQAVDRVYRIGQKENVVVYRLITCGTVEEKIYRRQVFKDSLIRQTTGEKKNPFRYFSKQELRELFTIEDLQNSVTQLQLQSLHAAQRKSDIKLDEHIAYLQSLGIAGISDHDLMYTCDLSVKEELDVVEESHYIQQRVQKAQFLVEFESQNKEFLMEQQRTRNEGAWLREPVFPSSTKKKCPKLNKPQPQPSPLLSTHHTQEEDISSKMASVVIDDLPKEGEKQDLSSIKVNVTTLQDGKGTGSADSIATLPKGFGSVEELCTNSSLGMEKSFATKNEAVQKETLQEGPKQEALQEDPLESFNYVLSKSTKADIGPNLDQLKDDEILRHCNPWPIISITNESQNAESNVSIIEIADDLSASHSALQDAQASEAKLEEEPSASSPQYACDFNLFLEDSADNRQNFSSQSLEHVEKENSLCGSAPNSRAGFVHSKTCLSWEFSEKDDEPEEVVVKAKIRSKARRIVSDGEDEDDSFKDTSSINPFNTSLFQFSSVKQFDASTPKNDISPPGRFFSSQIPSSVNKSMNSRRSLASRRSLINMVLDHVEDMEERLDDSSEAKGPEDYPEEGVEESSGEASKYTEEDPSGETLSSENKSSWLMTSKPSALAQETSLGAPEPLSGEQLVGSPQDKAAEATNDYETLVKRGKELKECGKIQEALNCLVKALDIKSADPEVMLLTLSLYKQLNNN
UniProt P06730, whole entry, looked up: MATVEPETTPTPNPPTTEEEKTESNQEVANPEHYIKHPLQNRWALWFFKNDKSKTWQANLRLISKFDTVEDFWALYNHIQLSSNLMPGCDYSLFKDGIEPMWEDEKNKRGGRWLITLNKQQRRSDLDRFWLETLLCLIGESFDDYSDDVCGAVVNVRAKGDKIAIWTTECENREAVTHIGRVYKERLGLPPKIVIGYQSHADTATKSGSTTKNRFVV
UniProt Q9BV81: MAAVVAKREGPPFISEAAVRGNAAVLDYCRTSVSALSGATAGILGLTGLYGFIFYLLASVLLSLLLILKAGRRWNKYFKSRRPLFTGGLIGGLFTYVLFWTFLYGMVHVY
UniProt P38919, whole entry, looked up: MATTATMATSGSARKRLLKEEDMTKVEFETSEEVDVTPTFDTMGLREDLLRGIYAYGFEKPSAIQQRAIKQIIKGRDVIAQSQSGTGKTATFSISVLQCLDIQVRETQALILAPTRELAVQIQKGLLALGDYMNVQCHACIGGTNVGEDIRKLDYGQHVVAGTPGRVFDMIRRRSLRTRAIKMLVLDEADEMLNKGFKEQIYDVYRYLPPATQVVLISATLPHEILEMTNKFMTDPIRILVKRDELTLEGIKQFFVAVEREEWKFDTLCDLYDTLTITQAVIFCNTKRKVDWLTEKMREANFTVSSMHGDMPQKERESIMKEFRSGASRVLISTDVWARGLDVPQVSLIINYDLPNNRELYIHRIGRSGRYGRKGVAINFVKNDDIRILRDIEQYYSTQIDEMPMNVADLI
UniProt P60228, whole entry, looked up: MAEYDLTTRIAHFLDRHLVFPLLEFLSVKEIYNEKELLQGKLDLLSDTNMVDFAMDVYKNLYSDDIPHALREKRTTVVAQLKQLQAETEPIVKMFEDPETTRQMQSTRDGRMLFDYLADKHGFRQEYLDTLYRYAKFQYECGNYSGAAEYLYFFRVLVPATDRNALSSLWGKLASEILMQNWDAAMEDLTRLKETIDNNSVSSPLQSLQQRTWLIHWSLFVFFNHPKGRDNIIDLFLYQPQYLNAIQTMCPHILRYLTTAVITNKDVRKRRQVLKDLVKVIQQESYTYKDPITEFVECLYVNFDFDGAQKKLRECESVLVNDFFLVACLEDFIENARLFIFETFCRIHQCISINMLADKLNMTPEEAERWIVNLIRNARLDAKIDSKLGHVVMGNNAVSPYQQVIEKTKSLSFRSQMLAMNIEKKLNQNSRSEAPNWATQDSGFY
UniProt P34913, whole entry, looked up: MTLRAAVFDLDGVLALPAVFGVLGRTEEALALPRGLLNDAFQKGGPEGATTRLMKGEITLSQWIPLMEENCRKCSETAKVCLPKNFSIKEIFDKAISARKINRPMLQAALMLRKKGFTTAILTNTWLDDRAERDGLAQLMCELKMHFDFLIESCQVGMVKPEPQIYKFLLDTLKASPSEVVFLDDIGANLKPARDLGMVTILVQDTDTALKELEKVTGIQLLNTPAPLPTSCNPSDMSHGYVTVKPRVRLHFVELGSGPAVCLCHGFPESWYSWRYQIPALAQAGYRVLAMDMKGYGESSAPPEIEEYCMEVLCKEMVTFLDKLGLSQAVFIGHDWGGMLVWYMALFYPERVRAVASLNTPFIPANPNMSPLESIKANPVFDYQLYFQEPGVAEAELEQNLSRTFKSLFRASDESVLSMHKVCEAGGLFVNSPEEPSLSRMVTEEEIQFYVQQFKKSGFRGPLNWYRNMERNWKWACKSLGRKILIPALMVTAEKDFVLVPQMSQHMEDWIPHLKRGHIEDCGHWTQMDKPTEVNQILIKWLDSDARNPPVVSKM
UniProt Q15369, whole entry, looked up: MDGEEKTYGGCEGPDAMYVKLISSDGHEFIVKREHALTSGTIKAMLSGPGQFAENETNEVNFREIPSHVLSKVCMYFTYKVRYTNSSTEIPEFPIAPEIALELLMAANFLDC

Compound in the first assay: CNC(=O)C1=CC=CC=C1NC2=NC(=NC=C2Cl)NC3=C(C=C(C=C3)N4CCOCC4)OC
The experiment in a line: log2 fold change, soluble protein after heating vs DMSO (PISA); higher = thermal stabilisation; K562 lysate, 10 uM; active = over 0.2 and 3.5 SD of the protein, either way, in both replicates (recomputed). Summed up:
(§1)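 K562 pellets were dounce-homogenised in PBS pH 7.4 containing 1 mM MgCl2, and the crude extract, at 1 mg/mL protein, was exposed to 10 μM compound for 30 min. Aliquots were heated for 3 min across 48°C-58°C, pooled, brought to 0.5% NP-40 at 4°C and spun at 21,000xg for 90 min, with the supernatant taken as soluble protein. TMTpro 16plex LC-MS/MS with equalised channel sums quantified that protein. Values are log-two fold changes in thermal stability relative to solvent controls, taken from duplicates.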
As to EIF2AK4 (UniProt Q9P2K8), the log2 fold change is inactive: -0.006.
As to EMC3 (UniProt Q9P0I2), the log2 fold change was inactive: 0.037.
On to EMP3 (UniProt P54852), for which the log2 fold change was inactive: 0.067.
Same read-out and setting: as for EMC4 (UniProt Q5J8M3), the figure is inactive: 0.054.
In the case of EPB41L3 (UniProt Q9Y2J2), the log2 fold change was inactive: 0.008.
On to EIF4EBP2 (UniProt Q13542), for which the log2 fold change is inactive: 0.037.
As for ERCC6L (UniProt Q2NKX8), the log2 fold change is inactive: -0.001.
For EIF4E isoform 2 (UniProt P06730), the log2 fold change was inactive: -0.01.
In the case of EMC6 (UniProt Q9BV81), the log2 fold change is inactive: 0.003.
With EIF4A3 (UniProt P38919), the log2 fold change is inactive: -0.01.
On to EIF3E (UniProt P60228), for which the log2 fold change was inactive: 0.05.
On the same count and under the same terms, next, EPHX2 (UniProt P34913): inactive: -0.023.

Compound in a further assay: CNC(=O)c1ccc(Nc2ncc(C(F)(F)F)c(NCc3nccnc3N(C)S(C)(=O)=O)n2)cc1 [defactinib]
The description is as above. Put shortly: as §1
Turning to EPB41L1 (UniProt Q9H4G0), the log2 fold change is inactive: -0.068.
Consider ELAC2 (UniProt Q9BQ52), for which the log2 fold change is inactive: -0.002.
In the case of EIF4B (UniProt P23588), the log2 fold change is inactive: -0.02.
EIF3F (UniProt O00303): the log2 fold change was inactive: 0.025.
Take EIF2D (UniProt P41214): the log2 fold change was inactive: 0.033.
Take EMC2 (UniProt Q15006): the log2 fold change is inactive: -0.004.
With EP300 (UniProt Q09472), the log2 fold change was inactive: 0.066.
For the target EIF5B (UniProt O60841), the log2 fold change was inactive: -0.017.
In the case of ERCC2 (UniProt P18074), the log2 fold change was inactive: 0.007.
Same read-out and setting: as for EMC10 (UniProt Q5UCC4), the figure is inactive: 0.006; as for EML2 isoform 3 (UniProt O95834), inactive: -0.02.
With EMC8 (UniProt O43402), the log2 fold change is inactive: -0.029.
For EIF3D (UniProt O15371), the log2 fold change was inactive: -0.011.
The same measure, in the same setting: next, ENGASE (UniProt Q8NFI3): inactive: -0.011.
On to EPS15L1 isoform 2 (UniProt Q9UBC2), for which the log2 fold change was inactive: -0.009.
Turning to EP400P1 isoform 6 (UniProt Q6ZTU2), the log2 fold change was inactive: -0.139.
For ENTPD5 (UniProt O75356), the log2 fold change is inactive: -0.062.
Consider ELP6 (UniProt Q0PNE2), for which the log2 fold change is inactive: 0.038.
In the case of EIF2B5 (UniProt Q13144), the log2 fold change was inactive: 0.022.
Take EIF3G (UniProt O75821): the log2 fold change is inactive: 0.009.
With ELOC (UniProt Q15369), the log2 fold change was inactive: 0.043.
Consider EML3 (UniProt Q32P44), for which the log2 fold change is inactive: 0.01.
As to ELOA (UniProt Q14241), the log2 fold change is inactive: 0.046.
Still for that read-out and setting: as for EIF2AK4 (UniProt Q9P2K8), the figure is inactive: 0.011; as for EMC3 (UniProt Q9P0I2), inactive: -0.009; as for EMP3 (UniProt P54852), inactive: 0.009.
For EMC4 (UniProt Q5J8M3), the log2 fold change is inactive: 0.089.
Consider EPB41L3 (UniProt Q9Y2J2), for which the log2 fold change is inactive: 0.041.
Consider EIF4EBP2 (UniProt Q13542), for which the log2 fold change was inactive: 0.182.
ERCC6L (UniProt Q2NKX8): the log2 fold change is inactive: 0.04.
The same measure, in the same setting: as for EIF4E isoform 2 (UniProt P06730), the figure is inactive: -0.034; as for EMC6 (UniProt Q9BV81), inactive: -0.024.
With EIF4A3 (UniProt P38919), the log2 fold change is inactive: -0.009.
EIF3E (UniProt P60228): the log2 fold change is inactive: -0.008.
Consider EPHX2 (UniProt P34913), for which the log2 fold change was inactive: -0.002.

Compound in another assay: CNc1nc(-c2ccc3c(N)n[nH]c3c2)cc(N2C[C@@H](C(=O)NC3CCCCC3)CC[C@H]2C)n1
Described as above. Put shortly:
as §1
In the case of EPB41L1 (UniProt Q9H4G0), the log2 fold change was inactive: 0.016.
Turning to ELAC2 (UniProt Q9BQ52), the log2 fold change was inactive: -0.001.
EIF4B (UniProt P23588): the log2 fold change is inactive: -0.003.
As to EIF3F (UniProt O00303), the log2 fold change was inactive: -0.022.
For EIF2D (UniProt P41214), the log2 fold change was inactive: -0.024.
Same read-out and setting: next, EMC2 (UniProt Q15006): inactive: 0.014; EP300 (UniProt Q09472): inactive: 0.006.
With EIF5B (UniProt O60841), the log2 fold change is inactive: -0.001.
Consider ERCC2 (UniProt P18074), for which the log2 fold change is inactive: -0.026.
Regarding EMC10 (UniProt Q5UCC4), the log2 fold change is inactive: -0.018.
With EML2 isoform 3 (UniProt O95834), the log2 fold change was inactive: -0.077.
Take EMC8 (UniProt O43402): the log2 fold change was inactive: -0.063.
The same measure, in the same setting: next, EIF3D (UniProt O15371): inactive: 0.019; ENGASE (UniProt Q8NFI3): inactive: 0.02.
Same read-out and setting: next, EPS15L1 isoform 2 (UniProt Q9UBC2): inactive: -0.004; EP400P1 isoform 6 (UniProt Q6ZTU2): inactive: 0.07; ENTPD5 (UniProt O75356): inactive: 0.026.
As for ELP6 (UniProt Q0PNE2), the log2 fold change was inactive: 0.067.
On to EIF2B5 (UniProt Q13144), for which the log2 fold change was inactive: 0.023.
Regarding EIF3G (UniProt O75821), the log2 fold change was inactive: 0.011.
On the same count and under the same terms, next, ELOC (UniProt Q15369): inactive: 0.051.
Consider EML3 (UniProt Q32P44), for which the log2 fold change is inactive: 0.017.
Same read-out and setting: as for ELOA (UniProt Q14241), the figure is inactive: 0.048.
For the target EIF2AK4 (UniProt Q9P2K8), the log2 fold change was inactive: 0.026.
For EMC3 (UniProt Q9P0I2), the log2 fold change was inactive: 0.014.
As to EMP3 (UniProt P54852), the log2 fold change was inactive: 0.056.
Consider EMC4 (UniProt Q5J8M3), for which the log2 fold change was inactive: -0.017.
As for EPB41L3 (UniProt Q9Y2J2), the log2 fold change is inactive: -0.036.
Consider EIF4EBP2 (UniProt Q13542), for which the log2 fold change was inactive: 0.
Turning to ERCC6L (UniProt Q2NKX8), the log2 fold change was inactive: -0.019.
On the same count and under the same terms, as for EIF4E isoform 2 (UniProt P06730), the figure is inactive: -0.092; as for EMC6 (UniProt Q9BV81), inactive: 0.036; as for EIF4A3 (UniProt P38919), inactive: 0.008.
On to EIF3E (UniProt P60228), for which the log2 fold change is inactive: -0.035.
As to EPHX2 (UniProt P34913), the log2 fold change was inactive: 0.123.

For the origin of these results see the supplement of paper PMC10849652.
